Results reported in ChEMBL document CHEMBL1148754, “4- and 5-aroylindoles as novel classes of potent antitubulin agents” (J Med Chem, 2007).

System: KB
Assay: Growth inhibition of human KB cells after 72 hrs by methylene blue dye assay
Assay type: functional, cell-based
In short: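 Antiproliferative screen in human cancer lines: KB (oral epidermoid carcinoma), HT29 (colorectal carcinoma), H460 (non-small cell lung carcinoma), TSGH and MKN45 (stomach carcinoma), plus KB-VIN10, an MDR-positive line overexpressing P-gp 170/MDR. Potency is reported as IC50.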

## COc1cc2c(c(OC)c1OC)-c1ccc(OC)c(=O)cc1[C@@H](NC(C)=O)CC2 [COLCHICINE]
  IC50: 12 nM
